Results taken from the supplement of paper PMC7877785.
± gives the uncertainty stated by the source. Many of these values have a large error.

Experiment: self-splicing fitness, log relative to wild type (ln ratio); higher = more splicing; Tetrahymena group I intron in knt gene, E. coli kanamycin selection, DiMSum; sequences stand for … in CUCUCU…GGAGGGAAAAGUUAUCAGGCAUGCACCUGGUAGCUAGUCUUUAAACCAAUAGAUUGCAUCGGUUUAAAAGGCAAGACCGUCAAAUUGCGGGAAAGGGGUCAACAGCCGUUCAGUACCAAGUCUCAGGGGAAACUUUGAGAUGGCCUUGCAAAGGGUAUGGUAAUAAGCUGACGGACAUGGUCCUAACCACGCAGCCAAGUCCUAAGUCAACAGAUCUUCUGUUGAUAUGGAUGCAGUUCACAGACUAAAUGUCGGUCGGGGAAGAUGUAUUCUUCUCAUAAGAUAUAGUCGGACCUCUCCUUAAUGGGAGCUAGCGGAUGAAGUGAUGCAACACUGGAGCCGCUGGGAACUAAUUUGUAUGCGAAAGUAUAUUGAUUAGUUUUGGAGUACUCGUGGUCG
How it was run: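 DiMSum derived fitness as the error-weighted combination of fold changes across replicates, kanamycin versus no kanamycin, normalised to wild type. E. coli BL21(DE3) held the library, which randomised all eight P1ex-region intron nucleotides within the knt kanamycin-resistance gene on pET-22b(+). Six replicate transformations grew overnight at 37°C or 30°C on LB agar with or without 25 μg/mL kanamycin, also containing 100 μg/mL carbenicillin, 50 μM IPTG and 0.2% rhamnose, and pooled colonies were amplicon-sequenced on an Illumina HiSeq 2500.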

Sequence	self-splicing fitness (ln) (30 °C)	self-splicing fitness (ln) (37 °C)
AACCAGCAAUAUUACGCGGA	-2.05 ± 0.093	-0.49 ± 0.072
CUUAAGCAAUAUUACGCGCA		-2.8 ± 0.74
UUUAAGCAAUAUUACGACUC	-0.391 ± 0.24	-0.881 ± 0.4
CAUGAGCAAUAUUACGAGUU	-4.84 ± 0.51	
GGCGAGCAAUAUUACGGGGU		-3.55 ± 1
GAUCAGCAAUAUUACGAGGC	-3.49 ± 0.52	
CGGCAGCAAUAUUACGAGUA	-2.43 ± 0.53	-3.67 ± 0.6
UGAGAGCAAUAUUACGUUUU	-4.66 ± 0.59	-3.29 ± 0.6
UCUAAGCAAUAUUACGGCUC	-4.37 ± 0.73	
UGUAAGCAAUAUUACGUCUC	-3.85 ± 0.61	
GCGGAGCAAUAUUACGAACU	-2.65 ± 1.1	
GACAAGCAAUAUUACGCAGC	-4.28 ± 0.52	
UGUGAGCAAUAUUACGGAUC	-4.47 ± 1	0.033 ± 0.61
CACUAGCAAUAUUACGCCAC	-3.13 ± 0.63	-1.95 ± 0.58
GUUGAGCAAUAUUACGACCA		-1.4 ± 0.81
CACCAGCAAUAUUACGGCUG	-3.78 ± 0.13	-1.29 ± 0.083
UAGAAGCAAUAUUACGCGGC	-0.828 ± 0.58	-1.88 ± 1.2
UGGCAGCAAUAUUACGGUGA	-0.428 ± 0.097	0.214 ± 0.12
CUCAAGCAAUAUUACGUCCU	-4 ± 0.27	-2.79 ± 0.19
AGUGAGCAAUAUUACGACGA	-2.44 ± 0.21	-1.13 ± 0.24
CUGAAGCAAUAUUACGGCGA		-2.8 ± 0.6
CAAGAGCAAUAUUACGUAUA	-4.95 ± 0.3	-1.92 ± 0.15
CUGAAGCAAUAUUACGACCC		-2.05 ± 1.1

Sequence	self-splicing fitness (ln) (30 °C)	self-splicing fitness (ln) (37 °C)
UAGAAGCAAUAUUACGACCC	-1.32 ± 1.4	-1.53 ± 0.6
AUCGAGCAAUAUUACGAAAC		-0.813 ± 0.69
CUUAAGCAAUAUUACGACUC		-1.9 ± 0.68
ACAGAGCAAUAUUACGCCUU	-3.76 ± 0.42	-1.9 ± 0.3
UUUAAGCAAUAUUACGGAUC		-2.41 ± 0.64
AGAGAGCAAUAUUACGCCCU		-3.53 ± 1
UGUCAGCAAUAUUACGACUU	-1.14 ± 0.1	0.303 ± 0.16
GGUAAGCAAUAUUACGACAG	-2.56 ± 0.29	-1.99 ± 0.44
AGAGAGCAAUAUUACGGUGA		-1.69 ± 0.81
GUUAAGCAAUAUUACGUUGC	-2.53 ± 0.77	-2.65 ± 0.54
GGUCAGCAAUAUUACGCGGG	-3.26 ± 0.61	
UCCAAGCAAUAUUACGAAUC	-3.6 ± 0.78	
GAAUAGCAAUAUUACGUUCC		-3.35 ± 0.73
UGCGAGCAAUAUUACGCUAU	-4.54 ± 1	
CAAUAGCAAUAUUACGCCCU	-2.02 ± 1.2	-1.62 ± 0.6
CUUUAGCAAUAUUACGGCCA	-3.58 ± 0.76	
CAUCAGCAAUAUUACGCAAC	-3.89 ± 0.51	
CCGAAGCAAUAUUACGGUUA	-3.9 ± 0.72	
UCUAAGCAAUAUUACGAACC	-1.52 ± 0.71	0.468 ± 0.86
GUUAAGCAAUAUUACGCCGG	-2.26 ± 0.51	
CCGUAGCAAUAUUACGCUUC	-4.52 ± 1	-2.28 ± 0.62
UCAGAGCAAUAUUACGCGCA	-1.19 ± 0.2	-1.69 ± 0.29
ACGGAGCAAUAUUACGAAAA	0.283 ± 0.64	

Sequence	self-splicing fitness (ln) (30 °C)	self-splicing fitness (ln) (37 °C)
AUUUAGCAAUAUUACGGCAC		0.656 ± 0.6
ACUGAGCAAUAUUACGACUA	-2.58 ± 0.65	-1.73 ± 0.61
UGCAAGCAAUAUUACGAUCU	-0.477 ± 0.091	-0.822 ± 0.1
AUCUAGCAAUAUUACGCCAA	-2.58 ± 0.61	
GCGGAGCAAUAUUACGUACA	-2.35 ± 0.6	-2.18 ± 0.64
CCGAAGCAAUAUUACGGAUC	-4.4 ± 0.73	-3.33 ± 0.73
CACUAGCAAUAUUACGGCAG	-0.257 ± 0.049	0.189 ± 0.066
GUCAAGCAAUAUUACGACUA	-3.5 ± 0.18	-2.03 ± 0.12
CGGGAGCAAUAUUACGUACC	-3.7 ± 0.78	-1.37 ± 0.62
CUCAAGCAAUAUUACGAUAC		-2.02 ± 0.56
UCCAAGCAAUAUUACGGUGA	-0.389 ± 0.054	0.493 ± 0.077
UAAUAGCAAUAUUACGUCUC		-1.95 ± 0.51
UGAGAGCAAUAUUACGAAUA		-2.08 ± 0.79
AUGUAGCAAUAUUACGAUUG	-1.21 ± 0.15	-3.05 ± 0.38
GGACAGCAAUAUUACGACGU	-0.177 ± 0.06	0.587 ± 0.075
CGAAAGCAAUAUUACGACGG	0.0482 ± 0.089	0.569 ± 0.12
GAGCAGCAAUAUUACGAAAC	-0.828 ± 0.82	-1.03 ± 0.93
GAUGAGCAAUAUUACGCAUU	-3.87 ± 1	
GUAGAGCAAUAUUACGGCAA	-2.01 ± 0.13	-0.535 ± 0.21
GUACAGCAAUAUUACGGGGC	-3.74 ± 0.35	-2.77 ± 0.47
CAGGAGCAAUAUUACGAUGA		-3.73 ± 1
CACGAGCAAUAUUACGGACC		-3.08 ± 1.1
CUUAAGCAAUAUUACGCCUA		-3.23 ± 1

Sequence	self-splicing fitness (ln) (30 °C)	self-splicing fitness (ln) (37 °C)
UUCGAGCAAUAUUACGCAAU	-2.93 ± 0.63	
UUCUAGCAAUAUUACGUGAC	-3.69 ± 0.31	-1.61 ± 0.24
GGGAAGCAAUAUUACGACCU		-2.13 ± 0.8
CAAGAGCAAUAUUACGGAGA	-2.57 ± 0.28	-1.91 ± 0.22
ACAUAGCAAUAUUACGAACA	0.105 ± 0.14	-1.05 ± 0.17
CUGUAGCAAUAUUACGCGCA	-2.23 ± 0.39	-2.52 ± 0.41
ACAGAGCAAUAUUACGACCA		-1.76 ± 0.55
UUUGAGCAAUAUUACGAAUC	-3.75 ± 1	-1.77 ± 0.59
AUCGAGCAAUAUUACGGUGG	-3.5 ± 0.53	
CCAAAGCAAUAUUACGGAUG	-1.44 ± 0.069	-1.48 ± 0.1
CUCGAGCAAUAUUACGAAAA		-1.81 ± 0.69
CUUUAGCAAUAUUACGCAAC		-2.97 ± 0.53
GGAGAGCAAUAUUACGACAG	-3.17 ± 1	-0.44 ± 0.82
GUGGAGCAAUAUUACGGACC		-2.92 ± 1
AUAGAGCAAUAUUACGUGAU	-2.02 ± 0.12	-0.825 ± 0.17
GUGGAGCAAUAUUACGACGA	-2.65 ± 0.7	
CAGGAGCAAUAUUACGAAAU		-4.25 ± 0.72
CGCAAGCAAUAUUACGCAAU	-2.94 ± 0.21	-2.14 ± 0.26
GACUAGCAAUAUUACGCUUC	-3.64 ± 0.73	-2.58 ± 0.63
CUUUAGCAAUAUUACGAGUU	-3.5 ± 0.52	
AUUAAGCAAUAUUACGAUGU	-0.608 ± 0.07	-0.0076 ± 0.084
GACGAGCAAUAUUACGUCAC	-3.96 ± 1	-2.12 ± 0.58
GUGGAGCAAUAUUACGGGUC	-2.25 ± 0.55	-2.26 ± 0.6

Sequence	self-splicing fitness (ln) (30 °C)	self-splicing fitness (ln) (37 °C)
CCACAGCAAUAUUACGCGUU	-3.65 ± 0.092	-2.91 ± 0.13
CUUGAGCAAUAUUACGGAGA	-4.17 ± 0.52	-2.03 ± 0.54
UACGAGCAAUAUUACGGAAA	-3.39 ± 1	
AGAGAGCAAUAUUACGACCA	-1.27 ± 1	
CUCGAGCAAUAUUACGAGCU		-4.37 ± 0.59
CGUGAGCAAUAUUACGUGAA	-4.98 ± 0.71	
AUGGAGCAAUAUUACGCCCG	-1.37 ± 0.73	-0.732 ± 0.68
AUCCAGCAAUAUUACGGACC	-1.71 ± 0.13	0.282 ± 0.13
GUGGAGCAAUAUUACGCGCU	-3.77 ± 1	-0.934 ± 0.61
CCUAAGCAAUAUUACGUGAC		-2.83 ± 0.54
UGGGAGCAAUAUUACGCCGG	-2.45 ± 0.23	-2.19 ± 0.31
UUUUAGCAAUAUUACGUGGC		-3.17 ± 1
GUCAAGCAAUAUUACGUGGC		-3.85 ± 0.51
UUUUAGCAAUAUUACGAGGU		-3.26 ± 0.74
UAGGAGCAAUAUUACGAUCC		-1.29 ± 1.2
CAUAAGCAAUAUUACGCCCC	-2.13 ± 0.56	-1.62 ± 0.67
GAUAAGCAAUAUUACGGAUU	-3.19 ± 0.14	-1.91 ± 0.12
CUUGAGCAAUAUUACGAUAC		-4.58 ± 1
AGAGAGCAAUAUUACGGAGA	-4.29 ± 1.1	
UAACAGCAAUAUUACGAUCC	-3.13 ± 0.53	
AUGGAGCAAUAUUACGCUAG	-4.57 ± 0.51	
GGAGAGCAAUAUUACGUUGU	-4.01 ± 0.19	-3.77 ± 0.24
UAAUAGCAAUAUUACGAAGA	-3.15 ± 0.53	

At a glance, some entries already given:
Sequence	self-splicing fitness (ln) (30 °C)	self-splicing fitness (ln) (37 °C)
GUGGAGCAAUAUUACGGGUC	-2.25 ± 0.55	-2.26 ± 0.6
CCACAGCAAUAUUACGCGUU	-3.65 ± 0.092	-2.91 ± 0.13
CUUGAGCAAUAUUACGGAGA	-4.17 ± 0.52	-2.03 ± 0.54
UACGAGCAAUAUUACGGAAA	-3.39 ± 1	
AGAGAGCAAUAUUACGACCA	-1.27 ± 1	
CUCGAGCAAUAUUACGAGCU		-4.37 ± 0.59
CGUGAGCAAUAUUACGUGAA	-4.98 ± 0.71	
AUGGAGCAAUAUUACGCCCG	-1.37 ± 0.73	-0.732 ± 0.68
AUCCAGCAAUAUUACGGACC	-1.71 ± 0.13	0.282 ± 0.13
GUGGAGCAAUAUUACGCGCU	-3.77 ± 1	-0.934 ± 0.61
CCUAAGCAAUAUUACGUGAC		-2.83 ± 0.54
UGGGAGCAAUAUUACGCCGG	-2.45 ± 0.23	-2.19 ± 0.31
UUUUAGCAAUAUUACGUGGC		-3.17 ± 1
GUCAAGCAAUAUUACGUGGC		-3.85 ± 0.51
UUUUAGCAAUAUUACGAGGU		-3.26 ± 0.74
UAGGAGCAAUAUUACGAUCC		-1.29 ± 1.2
CAUAAGCAAUAUUACGCCCC	-2.13 ± 0.56	-1.62 ± 0.67
GAUAAGCAAUAUUACGGAUU	-3.19 ± 0.14	-1.91 ± 0.12
CUUGAGCAAUAUUACGAUAC		-4.58 ± 1
AGAGAGCAAUAUUACGGAGA	-4.29 ± 1.1	
UAACAGCAAUAUUACGAUCC	-3.13 ± 0.53	
